Patent publication US20240285638A1, “METHODS FOR TREATING FACIOSCAPULOHUMERAL MUSCULAR DYSTROPHY (FSHD)” (RESEARCH INSTITUTE AT NATIONWIDE CHILDREN'S HOSPITAL, priority 2021, published 2024)
For at least one compound, name, drawing or mass did not settle the structure.

Legend:
[1] = system: DUX4; experiment: DUX4 biomarker and target gene expression in muscle of FSHD mouse model (TIC-DUX4) after IM or IV injection; assay type: in vivo
Description: SAA and AdOx, or derivatives thereof, as described herein, are each injected into a FSHD mouse model (TIC-DUX4) or any other mouse model of FSHD mice intramuscularly (IM) or intravenously (IV). After 4, 8, 12, 16, 20, and 24 weeks, the ? DUX4, a DUX4 biomarker, such as Wfdc3 or Trim36, and DUX4 target gene expression are measured by qRT-PCR, RNAscope, or ddPCR.

[2] = system: DUX4; experiment: DUX4-activated biomarkers and target genes in biopsied muscle of FSHD patients after IM or IV injection; assay type: in vivo, human
Description: SAA and AdOx, or derivatives thereof, as described herein, are injected into patients suffering from FSHD intramuscularly (IM) or intravenously (IV). Prior to treatment and after 4, 8, 12, 16, 20, 24, 28, 32, 36 40, 44, 48, and 52 weeks, DUX4-activated biomarkers and/or DUX4 target genes in muscle of the patients are measured in biopsied muscle as described herein.

[3] = system: human myoblasts expressing DUX4; experiment: Caspase-3/7 activation assay in human myoblasts transfected with DUX4, with or without inhibitor; assay type: cell-based; conditions: inhibitor added 1.5 hours later, increasing concentrations, caspase assay 48 hours later, FIGS. 6A-B
Description: HEK293 cells were transfected with 100 ng plasmid DNA (65,000 cells/well) using Lipofectamine 2000 and assays were performed 48 hours later using the Apo-ONE Homogeneous Caspase-3/7 Assay (Promega). The protocol was followed according to the manufacturer's instructions. Briefly, 100 μl of the reagent was added to each well and the 96-well plate was gently rotated for 20 min. Relative fluorescence was monitored every hour for 4-6 hours. Inhibitor studies were performed in human myoblasts which were transfected with 100 ng of DUX4 DNA (65,000 cells/well) with Lipofectamine 2000. The inhibitors adenosine dialdehyde or salvianolic acid A were added 1.5 hours later and a caspase assay was performed 48 hours later as above. The observation that a DUX4 arginine methylation null mutant protects from cell death and DUX4 interacts with an arginine methyltransferase indicate a role for arginine methylation inhibitors as protective in FSHD disease models. Thus, the global methylation inhibitor, adenosine dialdehyde (AdOx)^17, and the PRMT1 inhibitor, salvianolic acid A (SAA)^18 were tested for their ability to protect against DUX4-mediated cell death. The caspase assay was performed in human myoblasts expressing DUX4 in the presence or absence of AdOx or SAA.

Nc1ncnc2c1ncn2C(C=O)OC(C=O)CO (stereo not drawn) [AdOx, adenosine dialdehyde]
DUX4 biomarker expression in muscle (Wfdc3 or Trim36) ([1]; IM or IV, 4-24 weeks, vs untreated mice): Reduced levels of DUX4 biomarker expression
expression of DUX4 target genes PRAMEF12, ZSCAN4, TRIM43, LEUTX ([1]; IM or IV, vs untreated mice): decreased expression of DUX4 target genes
muscle strength, morphology, ambulation and motor function ([1]; treated mice): improved muscle strength, morphology, and overall ambulation and motor function
FSHD disease symptoms [2]: Improvement in FSHD disease symptoms
expression levels of DUX4-activated biomarkers and/or DUX4 target genes in muscle ([2]; 4-52 weeks, vs same patients prior to treatment): Reduced expression levels of DUX4-activated biomarkers and/or DUX4 target genes
caspase cleavage (DUX4-mediated cell death) [3]: decreased caspase cleavage in a dose-responsive manner
